Patent US20250304693A1
Changes are numbered by the printed parent chain. Names may count otherwise. Results are given in words; binding and its absence hold for the method and conditions named. Some results given as binding are weak or reduced against the parent protein; the word gives no strength.

Protein sequences, listed by entry. Tags and fused reporters are not part of them. Residues count along the entry.
UniProt Q7Z6A9, residues 31-157: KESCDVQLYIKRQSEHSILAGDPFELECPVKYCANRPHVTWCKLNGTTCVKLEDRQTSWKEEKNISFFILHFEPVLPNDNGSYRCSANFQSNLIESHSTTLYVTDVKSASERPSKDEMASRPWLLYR

B1: HFB6-3hz24-hG4P-C109A (antibody, V domains shown)
VH: QVQLQESGPGLVKPSGTLSLTCADSGFNIKDTYIHWVRQPPGKGLEWIGRIDPANGFTRYNPSLKSRVTISSDKSKNQASLKLSSVTAADTAVYYCAREDGYPYYTLDAWGQGTTVTVSS
VL: DIVMTQSPDSLALSLGERATINCKSSQSLLDVDGKTYLNWFQQKPGQPPKRLIYLVSKLDSGVPDRFSGSGSGTDFTLTISSVQAEDVAVYYCWQGTHFPRTFGQGTKLEIK
B2: HFB6-3hz25-hG4P-C109A (antibody, V domains shown)
VH: B1 VH with N28S, K30S
VL: B1 VL
B3: HFB6-3hz24-hG4P-C109S (antibody, V domains shown)
VH: B1 VH with A109S
VL: B1 VL
B4: HFB6-3hz25-hG4P-C109S (antibody, V domains shown)
VH: B1 VH with N28S, K30S, A109S
VL: B1 VL
B5: HFB6-3hz20-hG4P (antibody, V domains shown)
VH: B1 VH with L64F, V68A, A109C
VL: B1 VL
B6: HFB6-2hz8-hG4P (antibody, V domains shown)
VH: QVQLVQSGAEVKKPGASVKVSCKASGVNIKDTYMYWVRQAPGQGLEWIGRIDPANGYTRYAQKFQGRVTMTADTSTSTVYMELSSLRSEDTAVYYCAVNDGYFEYFDVWGQGTTVTVSS
VL: EIVLTQSPGTLSLSPGERATLSCRSSQSLLDSDGKPYLNWLQQKPGQAPRRLIYLVSKLDSGIPDRFSGSGSGTDFTLTISRLEPEDLAVYYCWQDTHFPRTFGQGTKLEIK
B7: HFB6-2hz9-hG4P (antibody, V domains shown)
VH: B6 VH with V68A, M70V, M81L
VL: B6 VL
B8: HFB6-2hz0-hG4P (antibody, V domains shown)
VH: B6 VH with A16S, T58A, V68A, M70I, T74E, V79A, M81L
VL: B6 VL
B9: HFB6-2hz11-hG4P (antibody, V domains shown)
VH: B6 VH with A16S, T58A, V68A, M70V, T74K, V79A, M81L
VL: B6 VL
B10: HFB6-2hz12-hG4P (antibody, V domains shown)
VH: EVQLLESGGGLVQPGGSLRLSCAASGVNIKDTYMYWVRQAPGKGLEWIGRIDPANGYTRYADSVKGRFTISADNSKNTLYLQMNSLRAEDTAVYYCAVNDGYFEYFDVWGQGTTVTVSS
VL: B6 VL
B11: HFB6-2hz15-hG4P (antibody, V domains shown)
VH: B6 VH
VL: B1 VL with L13V, V32S, T36P, F41L, P48S, G96D
B12: HFB6-2hz16-hG4P (antibody, V domains shown)
VH: B6 VH with V68A, M70V, M81L
VL: B1 VL with L13V, V32S, T36P, F41L, P48S, G96D
B13: HFB6-2hz17-hG4P (antibody, V domains shown)
VH: B6 VH with A16S, T58A, V68A, M70I, T74E, V79A, M81L
VL: B1 VL with L13V, V32S, T36P, F41L, P48S, G96D
B14: HFB6-2hz18-hG4P (antibody, V domains shown)
VH: B6 VH with A16S, T58A, V68A, M70V, T74K, V79A, M81L
VL: B1 VL with L13V, V32S, T36P, F41L, P48S, G96D
B15: HFB6-2hz19-hG4P (antibody, V domains shown)
VH: B10 VH
VL: B1 VL with L13V, V32S, T36P, F41L, P48S, G96D
B16: HFB6-2hz20-hG4P (antibody, V domains shown)
VH: QVQLQESGPGLVKPSGTLSLTCAASGVNIKDTYMYWVRQPPGKGLEWIGRIDPANGYTRYNPSFKSRATVSADKSKNQASLKLSSLTAADTAVYYCAVNDGYFEYFDVWGQGTTVTVSS
VL: B1 VL with L13V, V32S, T36P, F41L, P48S, G96D

target: cynomolgus BTLA on cells (cynomolgus); test: FACS, Expi293.cynoBTLA cells, AF647 anti-human IgG Fc secondary antibody, x axis log[Ab] nM

binding, binds:
B1
B2
B3
B4
B5

target: recombinant human BTLA (human) (UniProt Q7Z6A9); test: ELISA on recombinant human BTLA

binding, binds:
B6
B7
B8
B9
B10
B11
B12
B13
B14
B15
B16

target: recombinant human BTLA (human) (UniProt Q7Z6A9); test: ELISA (Ab binding to hBTLA-his), x axis log [hBTLA-his] nM, OD450

binding, binds:
B6
B7
B8
B9
B10
B11
B12
B13
B14
B15
B16

target: cynomolgus BTLA on cells (cynomolgus); test: FACS on Expi293 cynomolgus BTLA expressing cells (FIG. 11B)

binding, binds:
B1
B2
B3
B4
B5

target: cynomolgus BTLA on cells (cynomolgus); test: FACS on Expi293 cells overexpressing cynomolgus BTLA

binding, binds:
B1
B2
B3
B4
